# Measurements from the supplement of paper PMC8728848.
# The list shows a part of the results.
# Key:
# Test in all cases: glycan array binding signal (z-score within array); higher = stronger binding
# Details in all cases: glycan notation: IUPAC condensed, linker removed
# [1] = target: Fuc(a1-2)[Gal(a1-3)]Gal(b1-4)GlcNAc(b1-2)Man(a1-3)[Fuc(a1-2)[Gal(a1-3)]Gal(b1-4)GlcNAc(b1-2)Man(a1-6)]Man(b1-4)GlcNAc(b1-4)[Fuc(a1-6)]GlcNAc
# Summary of the method: (§1)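 Arrays were curated from the Consortium for Functional Glycomics database, 3228 in total, and kept only where the protein sequence was available. Binding is expressed as a within-array Z-score. This score was averaged across arrays of the same protein sequence at different concentrations or buffers and across linkers, and negative values can be read as non-binding.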
# [2] = target: Fuc(a1-2)[Gal(a1-3)]Gal(b1-4)GlcNAc(b1-3)GalNAc
# Summary of the method: as §1
# [3] = target: Fuc(a1-2)[Gal(a1-3)]Gal(b1-4)GlcNAc(b1-3)[Fuc(a1-2)[Gal(a1-3)]Gal(b1-4)GlcNAc(b1-6)]GalNAc
# Summary of the method: as §1
# [4] = target: Fuc(a1-2)[Gal(a1-3)]Gal(b1-4)GlcNAc(b1-6)GalNAc
# Summary of the method: as §1
# [5] = target: Fuc(a1-2)[Gal(a1-3)]Gal(b1-4)[Fuc(a1-3)]Glc
# Summary of the method: as §1
# [6] = target: Fuc(a1-2)[Gal(a1-3)]Gal(b1-4)[Fuc(a1-3)]GlcNAc
# Summary of the method: as §1
# [7] = target: Fuc(a1-2)[Gal(a1-3)]Gal(b1-4)[Fuc(a1-3)]GlcNAc(b1-3)GalNAc
# Summary of the method: as §1
# [8] = target: Fuc(a1-2)[Gal(a1-4)]Gal(b1-4)GlcNAc
# Summary of the method: as §1
# [9] = target: Fuc(a1-2)[GalNAc(a1-3)]Gal
# Summary of the method: as §1
# [10] = target: Fuc(a1-2)[GalNAc(a1-3)]Gal(b1-3)GalNAc(a1-3)[Fuc(a1-2)]Gal(b1-4)GlcNAc
# Summary of the method: as §1
# [11] = target: Fuc(a1-2)[GalNAc(a1-3)]Gal(b1-3)GalNAc(b1-3)Gal(a1-4)Gal(b1-4)Glc
# Summary of the method: as §1
# [12] = target: Fuc(a1-2)[GalNAc(a1-3)]Gal(b1-3)GlcNAc
# Summary of the method: as §1
# [13] = target: Fuc(a1-2)[GalNAc(a1-3)]Gal(b1-3)GlcNAc(b1-2)Man(a1-3)[Fuc(a1-2)[GalNAc(a1-3)]Gal(b1-3)GlcNAc(b1-2)Man(a1-6)]Man(b1-4)GlcNAc(b1-4)GlcNAc
# Summary of the method: as §1
# [14] = target: Fuc(a1-2)[GalNAc(a1-3)]Gal(b1-3)GlcNAc(b1-2)Man(a1-3)[Fuc(a1-2)[GalNAc(a1-3)]Gal(b1-3)GlcNAc(b1-2)Man(a1-6)]Man(b1-4)GlcNAc(b1-4)[Fuc(a1-6)]GlcNAc
# Summary of the method: as §1
# [15] = target: Fuc(a1-2)[GalNAc(a1-3)]Gal(b1-3)GlcNAc(b1-3)GalNAc
# Summary of the method: as §1
# [16] = target: Fuc(a1-2)[GalNAc(a1-3)]Gal(b1-3)GlcNAc(b1-6)GalNAc
# Summary of the method: as §1
# [17] = target: Fuc(a1-2)[GalNAc(a1-3)]Gal(b1-4)Glc
# Summary of the method: as §1
# [18] = target: Fuc(a1-2)[GalNAc(a1-3)]Gal(b1-4)GlcNAc
# Summary of the method: as §1
# [19] = target: Fuc(a1-2)[GalNAc(a1-3)]Gal(b1-4)GlcNAc(b1-2)Man
# Summary of the method: as §1
# [20] = target: Fuc(a1-2)[GalNAc(a1-3)]Gal(b1-4)GlcNAc(b1-2)Man(a1-3)[Fuc(a1-2)[GalNAc(a1-3)]Gal(b1-4)GlcNAc(b1-2)Man(a1-6)]Man(b1-4)GlcNAc(b1-4)GlcNAc
# Summary of the method: as §1
# [21] = target: Fuc(a1-2)[GalNAc(a1-3)]Gal(b1-4)GlcNAc(b1-2)Man(a1-3)[Fuc(a1-2)[GalNAc(a1-3)]Gal(b1-4)GlcNAc(b1-2)Man(a1-6)]Man(b1-4)GlcNAc(b1-4)[Fuc(a1-6)]GlcNAc
# Summary of the method: as §1
# [22] = target: Fuc(a1-2)[GalNAc(a1-3)]Gal(b1-4)GlcNAc(b1-3)Gal(b1-4)GlcNAc
# Summary of the method: as §1
# [23] = target: Fuc(a1-2)[GalNAc(a1-3)]Gal(b1-4)GlcNAc(b1-3)Gal(b1-4)GlcNAc(b1-3)Gal(b1-4)GlcNAc
# Summary of the method: as §1
# [24] = target: Fuc(a1-2)[GalNAc(a1-3)]Gal(b1-4)GlcNAc(b1-3)GalNAc
# Summary of the method: as §1
# [25] = target: Fuc(a1-2)[GalNAc(a1-3)]Gal(b1-4)GlcNAc(b1-3)[Fuc(a1-2)[GalNAc(a1-3)]Gal(b1-4)GlcNAc(b1-6)]GalNAc
# Summary of the method: as §1
# [26] = target: Fuc(a1-2)[GalNAc(a1-3)]Gal(b1-4)GlcNAc(b1-6)GalNAc
# Summary of the method: as §1
# [27] = target: Fuc(a1-2)[GalNAc(a1-3)]Gal(b1-4)[Fuc(a1-3)]GlcNAc
# Summary of the method: as §1
# [28] = target: Fuc(a1-2)[GalNAc(a1-3)]Gal(b1-4)[Fuc(a1-3)]GlcNAc(b1-3)GalNAc
# Summary of the method: as §1
# [29] = target: Fuc(a1-2)[GalNAc(a1-4)]Gal(b1-4)GlcNAc
# Summary of the method: as §1
# [30] = target: Fuc(a1-2)[GalNAc(b1-3)]Gal
# Summary of the method: as §1
binder,measurement,setting,value
OS9 (Arabidopsis thaliana) (protein) MRGSHHHHHHGMASMTGGQQMGRDLYDDDDKSRLQIFPAHLVGTFSRNNREPKYKIEFLPEDSPFHPGDNLESMVMLDKHGNRFLCYLPKEEKATSGWTSSQQNISTVMMETQQLVKLKTPDELLQPLSEKCLFRQEGWWSYEFCHQKYVRQLHVEDENKIVQEFFLGTFDPEATAAFNQTVSDASTDASQRYHSHVYTNGTTCDLTGSPREVEVRFVCAETRAMVTSITELSTCKYALTVQCPTLCKHPLFQLEKPVSHTIHCNAIPVEEDATRNKEEQAVDESPKMIADS,glycan array binding signal (z-score),[1],1.75
same,glycan array binding signal (z-score),[2],-0.639
same,glycan array binding signal (z-score),[3],0.078
same,glycan array binding signal (z-score),[4],0.051
same,glycan array binding signal (z-score),[5],-0.052
same,glycan array binding signal (z-score),[6],0.266
same,glycan array binding signal (z-score),[7],-0.96
same,glycan array binding signal (z-score),[8],0.342
same,glycan array binding signal (z-score),[9],0.599
same,glycan array binding signal (z-score),[10],-0.644
same,glycan array binding signal (z-score),[11],0.659
same,glycan array binding signal (z-score),[12],-0.221
same,glycan array binding signal (z-score),[13],0.907
same,glycan array binding signal (z-score),[14],0.007
same,glycan array binding signal (z-score),[15],0.937
same,glycan array binding signal (z-score),[16],-0.832
same,glycan array binding signal (z-score),[17],0.068
same,glycan array binding signal (z-score),[18],-0.828
same,glycan array binding signal (z-score),[19],-0.272
same,glycan array binding signal (z-score),[20],-0.302
same,glycan array binding signal (z-score),[21],0.082
same,glycan array binding signal (z-score),[22],-0.425
same,glycan array binding signal (z-score),[23],0.087
same,glycan array binding signal (z-score),[24],-1.24
same,glycan array binding signal (z-score),[25],0.139
same,glycan array binding signal (z-score),[26],-0.027
same,glycan array binding signal (z-score),[27],1.62
same,glycan array binding signal (z-score),[28],0.124
same,glycan array binding signal (z-score),[29],-0.01
same,glycan array binding signal (z-score),[30],-0.156

# Shown bar-delimited: part of the list above.
binder | measurement | setting | value
OS9 (Arabidopsis thaliana) (protein) MRGSHHHHHHGMASMTGGQQMGRDLYDDDDKSRLQIFPAHLVGTFSRNNREPKYKIEFLPEDSPFHPGDNLESMVMLDKHGNRFLCYLPKEEKATSGWTSSQQNISTVMMETQQLVKLKTPDELLQPLSEKCLFRQEGWWSYEFCHQKYVRQLHVEDENKIVQEFFLGTFDPEATAAFNQTVSDASTDASQRYHSHVYTNGTTCDLTGSPREVEVRFVCAETRAMVTSITELSTCKYALTVQCPTLCKHPLFQLEKPVSHTIHCNAIPVEEDATRNKEEQAVDESPKMIADS | glycan array binding signal (z-score) | [24] | -1.24
same | glycan array binding signal (z-score) | [25] | 0.139
same | glycan array binding signal (z-score) | [26] | -0.027
same | glycan array binding signal (z-score) | [27] | 1.62
same | glycan array binding signal (z-score) | [28] | 0.124
same | glycan array binding signal (z-score) | [29] | -0.01
same | glycan array binding signal (z-score) | [30] | -0.156
